# Test results reported in PubChem BioAssay AID1671190 (National Center for Advancing Translational Sciences (NCATS), 2021).
# The chains behind the UniProt entries cited, without tags or fusion partners.
# UniProt P18054, whole entry, looked up: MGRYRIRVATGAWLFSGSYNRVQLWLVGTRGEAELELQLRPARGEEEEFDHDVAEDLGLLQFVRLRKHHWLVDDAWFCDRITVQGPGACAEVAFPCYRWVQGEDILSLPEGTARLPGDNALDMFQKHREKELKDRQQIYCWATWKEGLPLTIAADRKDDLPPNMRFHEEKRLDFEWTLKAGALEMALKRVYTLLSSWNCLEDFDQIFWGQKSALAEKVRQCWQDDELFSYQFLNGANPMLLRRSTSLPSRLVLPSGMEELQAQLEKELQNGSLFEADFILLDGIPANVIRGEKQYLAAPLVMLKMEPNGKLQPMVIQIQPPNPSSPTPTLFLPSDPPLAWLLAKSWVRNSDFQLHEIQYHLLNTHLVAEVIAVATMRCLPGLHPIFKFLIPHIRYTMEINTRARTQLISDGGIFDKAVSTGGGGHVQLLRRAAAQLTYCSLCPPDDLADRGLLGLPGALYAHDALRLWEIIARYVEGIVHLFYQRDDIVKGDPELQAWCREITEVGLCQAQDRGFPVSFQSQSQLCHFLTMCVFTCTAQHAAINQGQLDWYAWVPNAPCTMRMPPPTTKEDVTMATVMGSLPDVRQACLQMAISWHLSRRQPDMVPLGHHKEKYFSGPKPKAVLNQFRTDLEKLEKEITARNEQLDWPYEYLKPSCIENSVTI
# Screen size: about 580,000 compounds; about 6,100 (1.1%) were called active. The inconclusive results got no clear call from the source; some entries with a clear call stand among them for comparison. The call rests on the fitted dose curve; in most records, active means well fitted inhibition curve with a large enough effect; inconclusive means small, poorly fitted or top-dose-only effect, or another doubt; inactive means no such curve, though single readings can be large or run the other way. Potencies beside an inconclusive call are fits to weak or partial responses and may not hold up.
# Molecular target: Polyunsaturated fatty acid lipoxygenase ALOX12 (Homo sapiens) (UniProt P18054)
# Assay: Primary qHTS assay for inhibitors of human arachidonate 12S-lipoxygenase (ALOX12): Round 2
# Settings: purified 12hLO, xylenol orange hydroperoxide absorbance; activity change, negative = inhibition: at 108 µM (top of the series) unless noted
# Procedure, shortened: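 Purified human 12hLO at 150 nM in 25 mM Hepes, 0.01% Triton X-100, pH 7.0, preincubated 15 min at room temperature with compound. Reaction started with 40 uM arachidonic acid, 30 min at room temperature. Hydroperoxide measured by Fe-xylenol orange, 573/405 nm absorbance ratio.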
# On the % scale 0 is the no-effect control and ±100 the full control effect; potency means the concentration at half of the fitted maximal effect.
SMILES,Potency,"activity change, negative = inhibition"
Cc1cc(C(=O)CCl)c(C)n1-c1cccc([N+](=O)[O-])c1,"inconclusive: 50.1 µM [inhibitor, partial curve, poor fit]",–
CC(=O)Nc1ccc(NC(=O)CC2CCCC2)cc1,"inconclusive: 56.2 µM [inhibitor, partial curve, poor fit]",–
COc1cc(C#N)ccc1OCC(=O)NC(=O)NCc1ccccc1,"inconclusive: 50.1 µM [inhibitor, partial curve, poor fit]",–
CCc1nc(N)c(C#N)c(-c2ccco2)c1C,inactive,–
O=C(NNc1cccc(Cl)n1)c1c(F)cccc1F,inactive,–
CS(=O)(=O)Cc1cccc(C(=O)N2CCN(CCc3ccccc3)CC2)c1,inactive,–
Cc1cc(Nc2cccc(Cl)c2)nc2ccc(NC(=O)C3CCCCC3)cc12,"inconclusive: 44.7 µM [inhibitor, partial curve, poor fit]",–
COc1ccc(S(=O)(=O)Nc2nc3ccccc3nc2Nc2cccc(C)c2)cc1,inactive,–
CCN(CC)c1ccc(C2Nc3cccc4cccc(c34)N2)cc1,"inconclusive: 112 µM [inhibitor, single point]",–
O=[N+]([O-])c1ccccc1OCCNCc1ccccc1,"inconclusive: 5.01 µM [inhibitor, full curve, poor fit]",–
CCn1ccc(C(=O)Nc2c(C)nn(Cc3c(F)c(F)c(F)c(F)c3F)c2C)n1,inactive,–
O=C1[C@H]2CN(Cc3ccc(F)cc3Cl)C[C@H]2C(=O)N1Cc1ccc2c(c1)OCO2,"inconclusive: 56.2 µM [inhibitor, partial curve, poor fit]",–
COc1ccc(OC)c(CN2CCN(C(=O)c3cc4ccccc4cc3O)CC2)c1,inactive,–
CCC(=O)Nc1cnc(-c2ccc(C)cc2)nc1,inactive,–
O=C(Nc1cn[nH]c1-c1nc2ccc(CN3CCOCC3)cc2[nH]1)NC1CC1,"inconclusive: 2.73 µM [inhibitor, partial curve, poor fit]",–
CCOC(=O)c1cc(NC(=O)c2ccc(-c3cc4ccccc4oc3=O)cc2)ccc1N1CCOCC1,"inconclusive: 70.8 µM [inhibitor, partial curve, poor fit]",–
COc1ccc(-c2coc3cc(OC(=O)N4CCOCC4)ccc3c2=O)cc1,"inconclusive: 126 µM [inhibitor, single point]",–
CCOc1cc(C(=O)Nc2ccc(-c3nnc4n3CCCCC4)cc2)cc(OCC)c1OCC,"inconclusive: 178 µM [inhibitor, partial curve, poor fit]",–
S=c1[nH]c2cc3ccccc3cc2[nH]1,"inconclusive: 44.7 µM [inhibitor, partial curve, poor fit]",–
CCc1cccc(-n2nnnc2N2CCC(C(=O)Nc3ccc(C)c(F)c3)CC2)c1,"inconclusive: 8.91 µM [inhibitor, full curve, poor fit]",–
C/C(=N\NS(=O)(=O)c1ccc(Cl)c([N+](=O)[O-])c1)c1ccc(C)o1,"inconclusive: 100 µM [inhibitor, single point]",–
Cc1ncsc1CCOC(=O)c1cccc([N+](=O)[O-])c1,"inconclusive: 35.5 µM [inhibitor, partial curve]",–
O=C(Nc1ccccc1N1CCOCC1)C1CCN(S(=O)(=O)c2cccc(C(F)(F)F)c2)CC1,"inconclusive: 112 µM [inhibitor, partial curve, poor fit]",–

SMILES,Potency,"activity change, negative = inhibition"
Cc1cc(NC(=O)N(Cc2ccc(C)o2)C2CC2)no1,inactive,–
CCOc1cc2c3c(c1)C1(Nc4ccccc4S1)C(=O)N3C(C)(C)CC2C (configuration not stated),"inconclusive: 28.2 µM [inhibitor, partial curve, poor fit]",–
Cn1c(=O)n(C)c2cc(N3CCOCC3)c(NS(=O)(=O)c3ccc(F)cc3)cc21,inactive,–
COc1ccc2nc(Nc3ccc4c(c3)OCO4)sc2c1,"inconclusive: 89.1 µM [inhibitor, partial curve, poor fit]",–
COC(=O)Cc1ccc(NC(=S)Nc2cccc(C)n2)cc1,"inconclusive: 14.1 µM [inhibitor, partial curve]",–
CN(C(=S)Nc1ccc(Oc2ccccc2)cc1)c1ccc(O)cc1,"inconclusive: 50.1 µM [inhibitor, partial curve, poor fit]",–
Nc1nc(-c2cccc(NS(=O)(=O)c3ccccc3)c2)cs1,"inconclusive: 89.1 µM [inhibitor, partial curve, poor fit]",–
CSc1c(C#N)sc(=S)n1-c1ccc(C)cc1,inactive,–
CCn1c(CNC(=O)c2cccc(C)c2)nnc1SCC(=O)NC1=NCCS1,inactive,–
COc1ccc2[nH]c3c(c2c1)CCN1C(=O)C(CC(=O)NCc2cccc(C(F)(F)F)c2)C[C@H](C(=O)N2CCCCC2)[C@@]31CCc1ccccc1 (some centres not stated),inactive,–
CC1(CCCCN2CCOCC2)COc2ccc(C(=O)NCc3ccco3)cc2N1 (configuration not stated),"inconclusive: 0.891 µM [inhibitor, full curve, poor fit]",–
COc1ccc(OC)c(NC(=O)c2cc3c(Cl)nc4ccccc4c3s2)c1,inactive,–
BrC(/C=N/N(c1ccccc1)c1ccccc1)=C/c1ccccc1,"inconclusive: 100 µM [inhibitor, single point]",–
CCc1ccc(CNC(=O)C2CCN(C(=O)c3ccc(-n4c(C)cc5ccccc54)s3)CC2)cc1,–,inconclusive: -31.5% [inhibitor]
Cc1ccc(S(=O)(=O)Nc2nc3ccc(C)cc3nc2Nc2ccc3c(c2)OCO3)cc1,"inconclusive: 25.1 µM [inhibitor, partial curve]",–
CC(=O)c1cccc(NC(=O)c2ccccc2SC(C)C)c1,"inconclusive: 20 µM [inhibitor, partial curve]",–
O=S(=O)(c1ccccc1Cl)N1CCCC1c1nc(-c2ccc(Cl)cc2)no1 (configuration not stated),"inconclusive: 3.98 µM [inhibitor, full curve, poor fit]",–
O=C(NC1CCN(Cc2ccccc2)CC1)c1cccc(C(F)(F)F)c1,inactive,–
CCOc1ccccc1-n1nnnc1SCC(=O)NC(=O)Cc1ccccc1,"inconclusive: 44.7 µM [inhibitor, partial curve, poor fit]",–
C[N+](C)(C)CC[N+]1(C)Cc2c(Cl)c(Cl)c(Cl)c(Cl)c2C1,"inconclusive: 22.4 µM [inhibitor, partial curve, poor fit]",–
O=[S+]1([O-])NCC2(CCCN(CC3CC3)C2)Nc2ccccc21 (configuration not stated),"inconclusive: 20 µM [inhibitor, full curve, poor fit]",–
COc1ccc2c(c1OC)C(=O)OC2CC(=O)c1ccccc1 (configuration not stated),inactive,–
COc1ccccc1-c1noc2c1C(=O)N(Cc1cn(-c3ccc(Cl)cc3)nn1)CC2,"inconclusive: 39.8 µM [inhibitor, partial curve, poor fit]",–

SMILES,Potency,"activity change, negative = inhibition"
Cc1cccc2cc(CN(Cc3cccnc3)C(=S)NCCCN(C)C)c(=O)[nH]c12,inactive,–
O=C(c1cc2cc(Br)ccc2oc1=O)N1CCCCCC1,"inconclusive: 50.1 µM [inhibitor, full curve, poor fit]",–
Cc1ccc(S(=O)(=O)N2[C@@H](c3ccc(C#N)cc3)C(C(=O)O)=C[C@H]2CC2CCCC2)cc1,"inconclusive: 35.5 µM [inhibitor, single point]",–
Clc1cccc(Cl)c1C1=NOC(c2nnc(-c3ccccc3)o2)C1 (configuration not stated),"inconclusive: 10 µM [inhibitor, full curve, poor fit]",–
CCCCOCCCNC(=O)CCSc1ccccc1,inactive,–
O=C(O)c1cc2cn(C3CCCC3)cc2s1,"inconclusive: 15.8 µM [inhibitor, partial curve, poor fit]",–
O=C(Nc1nccs1)c1cnc2sccn2c1=O,"inconclusive: 44.7 µM [inhibitor, partial curve, poor fit]",–
COC(=O)CNC(=O)C1=NOC2CN(C(=O)NC(C)C)CC12 (configuration not stated),–,inactive: 1.72% [at 6.33 µM]
CCc1c(C)sc(NC(=O)Cn2nc(C(F)(F)F)c3c2CCCC3)c1C#N,inactive,–
COc1ccc(NC(=O)c2cc(-c3ccc(C)cc3)on2)cc1OC,inactive,–
Cc1ccc(-c2ccc(CCC(=O)O)n2-c2ccc(C)c(Cl)c2)cc1,"inconclusive: 79.4 µM [inhibitor, partial curve, poor fit]",–
COc1cccc(/C=N/n2c(C3CCCCC3)n[nH]c2=S)c1O,active: 20 µM,–
Cc1ccc([N+](=O)[O-])cc1NC(=O)C(C)NS(=O)(=O)c1ccc(F)cc1 (configuration not stated),inactive,–
O=C1CC(c2ccccc2)(c2ccccc2)c2ccccc21,inactive,–
CC1(C)C(=O)OC(c2c(F)c(F)c(F)c(F)c2F)C2(CCCCC2)C1=O (configuration not stated),inactive,–
COC(=O)c1sc(SC)c2c1CC(C)(C)C/C2=N/O,"inconclusive: 112 µM [inhibitor, single point]",–
CC(C)CNC(=S)NC(=O)c1csc([N+](=O)[O-])c1,"inconclusive: 35.5 µM [inhibitor, partial curve, poor fit]",–
CCCCOc1ccc(S(=O)(=O)n2nc(C)c(S(=O)(=O)N3CCCCCC3)c2C)cc1,"inconclusive: 50.1 µM [inhibitor, partial curve, poor fit]",–
CS(=O)(=O)c1ccc2nc(NC(=O)c3cccc(NS(=O)(=O)c4ccc(F)c(F)c4)c3)sc2c1,"inconclusive: 44.7 µM [inhibitor, partial curve]",–
CCOC(=O)c1c(C)n(-c2ccc(C)cc2)c2ccc(O)c(CN(C)C)c12,"inconclusive: 44.7 µM [inhibitor, partial curve, poor fit]",–
NC(=S)NNC(=O)Nc1ccc(Cl)c(Cl)c1,"inconclusive: 89.1 µM [inhibitor, partial curve, poor fit]",–

# Laid out differently: entries from further up.
SMILES | Potency | activity change, negative = inhibition
Cc1ccc(-c2ccc(CCC(=O)O)n2-c2ccc(C)c(Cl)c2)cc1 | inconclusive: 79.4 µM [inhibitor, partial curve, poor fit] | –
CCOC(=O)c1c(C)n(-c2ccc(C)cc2)c2ccc(O)c(CN(C)C)c12 | inconclusive: 44.7 µM [inhibitor, partial curve, poor fit] | –
NC(=S)NNC(=O)Nc1ccc(Cl)c(Cl)c1 | inconclusive: 89.1 µM [inhibitor, partial curve, poor fit] | –
